# From patent publication US20200199217A1
# The chains behind the UniProt entries cited, without tags or fusion partners. Where a name states a change or a piece, a line headed by the entry shows the natural chain unless it says otherwise.
# UniProt Q9UHA7: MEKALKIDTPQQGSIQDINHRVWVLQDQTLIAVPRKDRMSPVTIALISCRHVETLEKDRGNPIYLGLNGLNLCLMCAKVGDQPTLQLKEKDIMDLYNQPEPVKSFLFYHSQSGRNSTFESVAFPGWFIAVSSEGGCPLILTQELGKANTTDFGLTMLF
# UniProt Q9NZH8: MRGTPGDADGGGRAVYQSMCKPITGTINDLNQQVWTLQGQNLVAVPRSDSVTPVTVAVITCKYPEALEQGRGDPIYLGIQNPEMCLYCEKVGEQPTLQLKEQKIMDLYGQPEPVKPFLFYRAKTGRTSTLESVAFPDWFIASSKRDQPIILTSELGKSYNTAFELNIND
# No constants are given. Whether binding was seen depends on the method and setting. Some results given as binding are weak or reduced against the parent protein; the word gives no strength.
# Legend:
# hu-IL-36α (human) = hu-IL-36α (human) (UniProt Q9UHA7); assay: summary of ELISA and HEK-Blue screening of yeast Fab supernatants
# hu-IL-36γ (human) = hu-IL-36γ (human) (UniProt Q9NZH8); assay: as above
binder,measurement,setting,value
"mAb5.0 Fab (Fab, V domains shown) VH: EVQLLESGGGLVQPGGSLRLSCAASGFTFSTYAMSWVRQAPGKGLEWVSGISGGSGYTYYADSVKGRFTISRDNSKNTLYLQMNSLRAEDTAVYYCARVVTYRDPPASFDYWGQGTLVTVSS VL: QSVLTQPPSVSGAPGQRVTISCTGSSSNIGAHYDVHWYQQLPGTAPKLLIYGNDNRPSGVPDRFSGSKSGTSASLAITGLQAEDEADYYCQSYDYSLKAYVFGGGTKLTVL",binding,hu-IL-36α (human),binds
same,binding,hu-IL-36γ (human),binds
